Laboratory results: PubChem BioAssay AID504744 (Drosophila RNAi Screening Center, 2011)
In all, the deposit lists about 23,000 reagents; this is an unselected part of those that have a named target and a result. Of all reagents, 98 (0.43%) are marked active. 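Only hit calls are given; the phospho-dAkt signals, z-scores and hit direction were not deposited.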 Names joined by + are all predicted targets of the reagent. No sequences are given here.

Assay: 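Find genes whose loss alters insulin-driven dAkt phosphorylation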 (primary screen)
System: Drosophila Kc167 cells
Reagent: long dsRNA against Drosophila genes, 250 ng dsRNA per well of a 384-well plate
Timing: 3 days of knock-down, then overnight serum-free starvation before stimulation
Treatment: bovine insulin at 387 nM for 10 minutes after 12 h without serum
Measured: 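Per-well phospho-dAkt level from an in-cell fluorescent antibody stain, divided by a DNA-dye signal; log2 residuals turned into z-scores that take cell number into account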
Call rule: 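Hit in the insulin screen when the two-replicate mean z-score is more extreme than plus or minus 2.5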

target gene	dsRNA	activity call
puf	DRSC15875	inactive
CG30094	DRSC22268	inactive
CG4593	DRSC18374	inactive
CG34347	DRSC14047	inactive
CG34347	DRSC14305	inactive
CG34347	DRSC15104	inactive
CG34347	DRSC15105	inactive
CG3764	DRSC10375	inactive
CG6470	DRSC19994	inactive
LysX	DRSC08678	inactive
pxb	DRSC13110	inactive
pxb	DRSC14996	inactive
pxb	DRSC14997	inactive
pxb	DRSC22225	inactive
Cyp12e1	DRSC16622	inactive
CG14507	DRSC14859	inactive
scny	DRSC10509	inactive
scny	DRSC10510	inactive
Chsy	DRSC20175	inactive
Chsy	DRSC20176	inactive
CG8142	DRSC20086	inactive
Mi-2	DRSC11222	inactive
CG6321	DRSC10623	inactive
CG3626	DRSC18318	inactive
glob2	DRSC12560	inactive
Sh3beta	DRSC11001	inactive
Sh3beta	DRSC22053	inactive
CG14546	DRSC14890	inactive
CG18853	DRSC06795	inactive
ItgaPS5	DRSC04501	inactive
CG30043	DRSC06285	inactive
sw	DRSC20388	inactive
CG8300	DRSC18426	inactive
CG11369	DRSC17779	inactive
lncRNA:CR42646	DRSC04759	inactive
CG32681	DRSC17646	inactive
TotE	DRSC21355	inactive
Cpr64Ad	DRSC08284	inactive
CG18596	DRSC15355	inactive
CG11417	DRSC18581	inactive
pyd	DRSC12712	inactive
pyd	DRSC14387	inactive
pyd	DRSC14445	inactive
pyd	DRSC14509	inactive
pyd	DRSC16547	inactive
pyd	DRSC16548	inactive
pyd	DRSC17041	inactive
pyd	DRSC21523	inactive
CG1116	DRSC12166	inactive
hlk	DRSC05021	inactive
hlk	DRSC05022	inactive
O-fut2	DRSC18608	inactive
CG11275	DRSC04095	inactive
CG32820 + CG17450 + CG32819	DRSC21803	inactive
CG32820 + CG17450 + CG32819	DRSC22812	inactive
CG43980	DRSC11500	inactive
CG43980	DRSC11646	inactive
maf-S	DRSC07348	inactive
CG8607	DRSC11012	inactive
CG14053	DRSC17908	inactive
CG17359	DRSC10265	inactive
CARPB	DRSC18437	inactive
CARPB	DRSC18438	inactive
Pde1c	DRSC02421	inactive
Pde1c	DRSC02422	inactive
Pde1c	DRSC02423	inactive
Pde1c	DRSC02424	inactive
Pde1c	DRSC02425	inactive
Pde1c	DRSC02426	inactive
su(Hw)	DRSC17074	inactive
CG5506	DRSC10511	inactive
CalpC	DRSC19873	inactive
Kank	DRSC05513	inactive
Kank	DRSC05933	inactive
Pms2	DRSC07511	inactive
CG34008	DRSC13428	inactive
CG32808	DRSC17689	inactive
ND6 (retired record)	DRSC21271	inactive
eEF1alpha1	DRSC07421	inactive
CG15046	DRSC19622	inactive
CG13386	DRSC02260	inactive
Fen1	DRSC07415	inactive
Drs	DRSC08657	inactive
lab	DRSC12627	inactive
CG30060	DRSC05419	inactive
Nf-YB	DRSC02057	inactive
Odc2	DRSC07483	inactive
CG30457	DRSC06661	inactive
CG12680	DRSC17871	inactive
CG33523	DRSC09814	inactive
CG33523	DRSC22155	inactive
mnd	DRSC11370	inactive
RpLP2	DRSC07539	inactive
gskt	DRSC14056	inactive
CG6592	DRSC10669	inactive
Rbf2	DRSC16816	inactive
Mocs1	DRSC11225	inactive
CG32687	DRSC18210	inactive
CG32687	DRSC18237	inactive
Spn77Ba	DRSC10693	inactive
RpS2	DRSC03614	inactive
pzg	DRSC11848	inactive
mTerf5	DRSC16209	inactive
CG8072	DRSC10960	inactive
Ubr1	DRSC20148	inactive
Ilp3	DRSC10168	inactive
Ndc80	DRSC20221	inactive
Ndc80	DRSC21726	inactive
Jon65Aiv	DRSC10644	inactive
CG32830 (retired record)	DRSC01162	inactive
Inx5	DRSC20051	inactive
Pepck1	DRSC07505	inactive
CG3348	DRSC15480	inactive
CG6073	DRSC15962	inactive
CG6073	DRSC22742	inactive
Pif2	DRSC12525	inactive
CG14657	DRSC12219	inactive
CG14657	DRSC12243	inactive
Vps60	DRSC10610	inactive
CG6583	DRSC02972	inactive
fon	DRSC02507	inactive
CG5849	DRSC15893	inactive
Fadd	DRSC14122	inactive
gt	DRSC18782	inactive
RunxB	DRSC20395	inactive
RunxB	DRSC20525	inactive
RunxB	DRSC20526	inactive
Dtd	DRSC15362	inactive
bdg	DRSC07136	inactive
CG18281	DRSC11742	inactive
Hsp68	DRSC16712	inactive
l(3)mbt	DRSC16983	inactive
CG12106	DRSC17805	inactive
Abcd1	DRSC17157	inactive
CG13319	DRSC06356	inactive
Capr	DRSC10346	inactive
RpS27A	DRSC03421	inactive
cav	DRSC15995	inactive
fd102C	DRSC17203	inactive
CG11413 + CG4622	DRSC04109	inactive
GC1	DRSC15322	inactive
CG8785	DRSC07266	inactive
CG42306 + Gint3	DRSC06934	inactive
IFT46	DRSC02462	inactive
Ssdp	DRSC16211	inactive
CG8399	DRSC07163	inactive
cGlr1	DRSC06270	inactive
CG42531	DRSC05318	inactive
Uvrag	DRSC02932	inactive
MnM	DRSC08423	inactive
CG17834	DRSC02637	inactive
muskelin	DRSC07273	inactive
CG9917	DRSC20218	inactive
Bap60	DRSC19337	inactive
Ada2a	DRSC16206	inactive
Ada2a	DRSC21598	inactive
CG15710	DRSC06581	inactive

25 entries from above, set out differently.
target gene,dsRNA,activity call
CARPB,DRSC18438,inactive
Pde1c,DRSC02421,inactive
Pde1c,DRSC02422,inactive
Pde1c,DRSC02423,inactive
Pde1c,DRSC02424,inactive
Pde1c,DRSC02425,inactive
Pde1c,DRSC02426,inactive
su(Hw),DRSC17074,inactive
CG5506,DRSC10511,inactive
CalpC,DRSC19873,inactive
Kank,DRSC05513,inactive
Kank,DRSC05933,inactive
Pms2,DRSC07511,inactive
CG34008,DRSC13428,inactive
CG32808,DRSC17689,inactive
ND6 (retired record),DRSC21271,inactive
eEF1alpha1,DRSC07421,inactive
CG15046,DRSC19622,inactive
CG13386,DRSC02260,inactive
Fen1,DRSC07415,inactive
Drs,DRSC08657,inactive
lab,DRSC12627,inactive
CG30060,DRSC05419,inactive
Nf-YB,DRSC02057,inactive
Odc2,DRSC07483,inactive
